Data reported in US12263139B2, “Use of cannabidiol in the treatment of tuberous sclerosis complex” (Jazz Pharmaceuticals Research UK Limited, priority 2017, dated 2025).
At least one compound was matched to its structure with a doubt left.

System: Tsc2−/− MEFs
Assay: Tumour spheroid growth (soft agar) assay in Tsc2−/− MEFs
Format: cell-based, mouse
Conditions: rapamycin, concentration not given
Method: (ii) Tsc2−/− p53−/− and Tsc2+/+p53−/− mouse embryonic fibroblast (MEF) cell lines (now referred to as Tsc2−/− and Tsc2+/+, respectively).
The stock concentration of CBD was made to 20 mM in dimethyl sulfoxide (DMSO). CBD was added to culture media to final concentrations of either 5 μM or 10 μM, as indicated). The final concentration of the DMSO in the cell culture medium was at a maximum level of 0.05% (v/v).
Two-layered soft agar assays were carried out in 6-well plates. All cell lines were plated in complete DMEM media in 0.35% (v/v) agar at (3*10^5) over a 0.6% (v/v) agar layer. The agar was then overlaid with complete DMEM media and spheroids were grown for 14 days at 37° C. in 5% CO2. Media were changed twice a week and new drug was added to media. Pictures were taken using an inverted AMG EVOS microscope equipped with an Olympus camera. Volume of tumour spheroids was measured using ImageJ software.

CO[C@H]1C[C@@H]2CC[C@@H](C)[C@@](O)(O2)C(=O)C(=O)N2CCCC[C@H]2C(=O)O[C@H]([C@H](C)C[C@@H]2CC[C@@H](O)[C@H](OC)C2)CC(=O)[C@H](C)/C=C(\C)[C@@H](O)[C@@H](OC)C(=O)[C@H](C)C[C@H](C)/C=C/C=C/C=C/1C [rapamycin, Rapamycin, reference compound]
inhibition of tumour spheroid diameter: Significance to inhibit tumour spheroid diameter was observed
